According to the supplement of paper PMC12067093, “Discovery and optimisation of a covalent ligand for TRIM25 and its application to targeted protein ubiquitination” (Chemical Science, 2025):
This is one part of the list.

Amino acid sequences for entries named in this document (tags omitted). A change or cut given only in a name is not applied to a line headed by its entry.
UniProt O00507: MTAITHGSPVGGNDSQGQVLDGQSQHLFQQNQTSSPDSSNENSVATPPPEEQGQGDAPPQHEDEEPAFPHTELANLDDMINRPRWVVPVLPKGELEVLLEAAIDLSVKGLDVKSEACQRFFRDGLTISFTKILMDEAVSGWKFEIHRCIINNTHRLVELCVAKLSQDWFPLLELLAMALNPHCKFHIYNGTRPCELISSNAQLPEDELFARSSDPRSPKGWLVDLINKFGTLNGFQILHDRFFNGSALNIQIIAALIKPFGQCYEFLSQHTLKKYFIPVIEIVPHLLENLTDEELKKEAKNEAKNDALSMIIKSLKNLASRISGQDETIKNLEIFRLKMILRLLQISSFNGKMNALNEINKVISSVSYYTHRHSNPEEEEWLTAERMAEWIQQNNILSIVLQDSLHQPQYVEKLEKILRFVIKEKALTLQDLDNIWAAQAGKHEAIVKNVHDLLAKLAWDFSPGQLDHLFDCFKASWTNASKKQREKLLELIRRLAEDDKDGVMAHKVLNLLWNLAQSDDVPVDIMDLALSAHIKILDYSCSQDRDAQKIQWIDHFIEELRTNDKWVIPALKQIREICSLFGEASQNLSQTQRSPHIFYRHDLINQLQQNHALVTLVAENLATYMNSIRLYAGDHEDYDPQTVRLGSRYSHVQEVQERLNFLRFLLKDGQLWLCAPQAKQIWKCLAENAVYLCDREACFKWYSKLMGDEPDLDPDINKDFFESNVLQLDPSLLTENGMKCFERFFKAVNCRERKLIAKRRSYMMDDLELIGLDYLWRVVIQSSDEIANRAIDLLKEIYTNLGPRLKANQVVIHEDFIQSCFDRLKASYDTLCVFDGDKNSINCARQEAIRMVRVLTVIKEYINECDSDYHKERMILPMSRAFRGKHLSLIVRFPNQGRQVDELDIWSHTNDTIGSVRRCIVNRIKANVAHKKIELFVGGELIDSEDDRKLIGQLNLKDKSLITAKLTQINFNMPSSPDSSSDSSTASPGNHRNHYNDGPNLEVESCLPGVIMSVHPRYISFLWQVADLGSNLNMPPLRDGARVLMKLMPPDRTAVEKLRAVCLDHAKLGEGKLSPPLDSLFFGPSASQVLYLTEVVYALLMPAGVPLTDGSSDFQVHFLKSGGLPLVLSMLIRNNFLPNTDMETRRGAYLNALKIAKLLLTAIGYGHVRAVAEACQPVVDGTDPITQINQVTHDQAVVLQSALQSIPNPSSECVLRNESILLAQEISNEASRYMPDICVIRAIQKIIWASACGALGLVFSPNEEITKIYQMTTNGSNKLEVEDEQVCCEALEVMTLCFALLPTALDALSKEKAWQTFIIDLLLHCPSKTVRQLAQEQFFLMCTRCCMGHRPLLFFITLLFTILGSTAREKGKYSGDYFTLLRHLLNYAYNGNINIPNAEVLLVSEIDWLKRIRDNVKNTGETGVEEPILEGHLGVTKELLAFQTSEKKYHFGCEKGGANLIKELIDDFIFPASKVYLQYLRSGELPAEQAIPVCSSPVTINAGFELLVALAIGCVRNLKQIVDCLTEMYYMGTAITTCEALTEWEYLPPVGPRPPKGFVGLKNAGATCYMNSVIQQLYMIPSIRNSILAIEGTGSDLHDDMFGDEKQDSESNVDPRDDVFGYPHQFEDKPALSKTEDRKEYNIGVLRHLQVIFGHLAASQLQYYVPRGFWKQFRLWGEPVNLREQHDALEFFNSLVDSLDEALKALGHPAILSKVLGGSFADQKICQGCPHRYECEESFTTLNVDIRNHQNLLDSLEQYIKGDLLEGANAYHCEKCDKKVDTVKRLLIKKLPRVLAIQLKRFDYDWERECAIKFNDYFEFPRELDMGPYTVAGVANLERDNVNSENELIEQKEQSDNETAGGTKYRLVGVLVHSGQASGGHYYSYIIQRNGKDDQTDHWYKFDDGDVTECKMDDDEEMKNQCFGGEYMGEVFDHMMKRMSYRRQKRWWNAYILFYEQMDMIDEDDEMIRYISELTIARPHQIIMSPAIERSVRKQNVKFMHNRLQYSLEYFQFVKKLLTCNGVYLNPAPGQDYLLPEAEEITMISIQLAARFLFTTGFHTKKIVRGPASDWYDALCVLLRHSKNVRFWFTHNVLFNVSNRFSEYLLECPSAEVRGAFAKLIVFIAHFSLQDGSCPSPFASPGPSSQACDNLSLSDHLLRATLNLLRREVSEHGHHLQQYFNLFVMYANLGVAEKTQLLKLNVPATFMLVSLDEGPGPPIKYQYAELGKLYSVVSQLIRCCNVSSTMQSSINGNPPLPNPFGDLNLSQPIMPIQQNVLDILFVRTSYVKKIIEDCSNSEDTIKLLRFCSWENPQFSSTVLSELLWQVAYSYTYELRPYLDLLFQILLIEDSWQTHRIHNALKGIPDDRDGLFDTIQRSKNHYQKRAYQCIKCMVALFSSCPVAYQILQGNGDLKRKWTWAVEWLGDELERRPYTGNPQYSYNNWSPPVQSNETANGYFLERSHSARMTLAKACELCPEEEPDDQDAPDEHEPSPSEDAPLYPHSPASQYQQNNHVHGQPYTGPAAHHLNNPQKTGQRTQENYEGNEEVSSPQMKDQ
UniProt Q9UK41: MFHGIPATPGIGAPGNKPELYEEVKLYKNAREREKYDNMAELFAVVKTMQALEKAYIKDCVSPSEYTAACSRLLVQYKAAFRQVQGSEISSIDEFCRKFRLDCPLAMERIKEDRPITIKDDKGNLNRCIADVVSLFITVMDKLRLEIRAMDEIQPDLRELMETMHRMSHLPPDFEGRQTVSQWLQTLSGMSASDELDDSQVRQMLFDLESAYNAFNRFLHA
UniProt Q7Z5K2: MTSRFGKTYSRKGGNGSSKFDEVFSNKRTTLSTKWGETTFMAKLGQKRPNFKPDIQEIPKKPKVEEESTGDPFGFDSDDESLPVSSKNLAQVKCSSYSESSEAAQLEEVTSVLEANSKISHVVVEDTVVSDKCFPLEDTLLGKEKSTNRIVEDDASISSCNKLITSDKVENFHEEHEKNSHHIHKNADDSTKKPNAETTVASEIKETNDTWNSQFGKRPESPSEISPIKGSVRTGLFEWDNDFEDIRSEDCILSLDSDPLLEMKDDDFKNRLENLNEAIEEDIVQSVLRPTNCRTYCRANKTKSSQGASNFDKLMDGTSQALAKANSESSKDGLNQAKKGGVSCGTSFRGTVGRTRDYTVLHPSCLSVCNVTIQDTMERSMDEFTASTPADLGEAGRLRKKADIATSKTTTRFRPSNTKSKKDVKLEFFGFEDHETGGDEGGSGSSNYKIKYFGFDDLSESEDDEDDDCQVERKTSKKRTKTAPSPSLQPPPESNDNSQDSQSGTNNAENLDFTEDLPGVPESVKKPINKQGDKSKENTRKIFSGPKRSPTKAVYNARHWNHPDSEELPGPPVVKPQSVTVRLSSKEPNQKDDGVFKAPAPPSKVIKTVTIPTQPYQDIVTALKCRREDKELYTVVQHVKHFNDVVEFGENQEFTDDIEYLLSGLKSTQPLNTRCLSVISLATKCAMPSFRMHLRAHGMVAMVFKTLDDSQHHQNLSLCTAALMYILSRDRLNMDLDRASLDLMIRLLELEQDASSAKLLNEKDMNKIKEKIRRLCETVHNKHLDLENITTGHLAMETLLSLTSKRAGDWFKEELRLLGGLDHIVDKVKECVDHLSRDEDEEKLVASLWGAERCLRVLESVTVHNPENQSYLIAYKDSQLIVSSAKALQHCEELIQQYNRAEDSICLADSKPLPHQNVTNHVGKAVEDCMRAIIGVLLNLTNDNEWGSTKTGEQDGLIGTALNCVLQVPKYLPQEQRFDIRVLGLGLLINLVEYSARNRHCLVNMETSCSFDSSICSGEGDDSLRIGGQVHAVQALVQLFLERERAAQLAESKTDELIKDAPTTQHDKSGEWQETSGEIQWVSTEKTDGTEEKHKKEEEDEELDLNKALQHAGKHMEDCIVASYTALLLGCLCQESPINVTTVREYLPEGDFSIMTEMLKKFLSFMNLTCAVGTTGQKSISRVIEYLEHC
UniProt Q9P253: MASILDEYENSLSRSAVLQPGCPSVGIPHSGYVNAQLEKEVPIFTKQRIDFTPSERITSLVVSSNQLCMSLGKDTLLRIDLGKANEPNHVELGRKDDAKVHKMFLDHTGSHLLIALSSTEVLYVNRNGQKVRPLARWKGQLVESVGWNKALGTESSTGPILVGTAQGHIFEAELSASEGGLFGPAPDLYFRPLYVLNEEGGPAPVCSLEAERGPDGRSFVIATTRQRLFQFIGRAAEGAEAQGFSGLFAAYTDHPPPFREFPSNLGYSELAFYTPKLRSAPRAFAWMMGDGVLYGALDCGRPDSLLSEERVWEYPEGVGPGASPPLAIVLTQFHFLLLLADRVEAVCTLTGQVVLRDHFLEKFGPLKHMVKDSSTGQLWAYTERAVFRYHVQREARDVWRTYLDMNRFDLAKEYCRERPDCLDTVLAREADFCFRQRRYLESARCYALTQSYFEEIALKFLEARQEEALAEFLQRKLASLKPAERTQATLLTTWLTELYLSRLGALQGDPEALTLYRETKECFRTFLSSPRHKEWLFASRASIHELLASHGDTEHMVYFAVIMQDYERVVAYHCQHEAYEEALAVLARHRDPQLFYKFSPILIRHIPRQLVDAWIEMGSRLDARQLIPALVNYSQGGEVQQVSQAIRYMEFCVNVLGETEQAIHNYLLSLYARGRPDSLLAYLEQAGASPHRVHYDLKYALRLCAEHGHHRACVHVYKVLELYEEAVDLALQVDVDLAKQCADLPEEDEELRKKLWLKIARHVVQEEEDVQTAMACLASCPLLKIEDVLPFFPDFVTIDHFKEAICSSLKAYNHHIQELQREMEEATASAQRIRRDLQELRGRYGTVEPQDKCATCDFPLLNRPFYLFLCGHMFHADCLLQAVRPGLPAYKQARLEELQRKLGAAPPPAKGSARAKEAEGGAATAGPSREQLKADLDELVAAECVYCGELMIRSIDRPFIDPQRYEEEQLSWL
UniProt P55072, whole entry, looked up: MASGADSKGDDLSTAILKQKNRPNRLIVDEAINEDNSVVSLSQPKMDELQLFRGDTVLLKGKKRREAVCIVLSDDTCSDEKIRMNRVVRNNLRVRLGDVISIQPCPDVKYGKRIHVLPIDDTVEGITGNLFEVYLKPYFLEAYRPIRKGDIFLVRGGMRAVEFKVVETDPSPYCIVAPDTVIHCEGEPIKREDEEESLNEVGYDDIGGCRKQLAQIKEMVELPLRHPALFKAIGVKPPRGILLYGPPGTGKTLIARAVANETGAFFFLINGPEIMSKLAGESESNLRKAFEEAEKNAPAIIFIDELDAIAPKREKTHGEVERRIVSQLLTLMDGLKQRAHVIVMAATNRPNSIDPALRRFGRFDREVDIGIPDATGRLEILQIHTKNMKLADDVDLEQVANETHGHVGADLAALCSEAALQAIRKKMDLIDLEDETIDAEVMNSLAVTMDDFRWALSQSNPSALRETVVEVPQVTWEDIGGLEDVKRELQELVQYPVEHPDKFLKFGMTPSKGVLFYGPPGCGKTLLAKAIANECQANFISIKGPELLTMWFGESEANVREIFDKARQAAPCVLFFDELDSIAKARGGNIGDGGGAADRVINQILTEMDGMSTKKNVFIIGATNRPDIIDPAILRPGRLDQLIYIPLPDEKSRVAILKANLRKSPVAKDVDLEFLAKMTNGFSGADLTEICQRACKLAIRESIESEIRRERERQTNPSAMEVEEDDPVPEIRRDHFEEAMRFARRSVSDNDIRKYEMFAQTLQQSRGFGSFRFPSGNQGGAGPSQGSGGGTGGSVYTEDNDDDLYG
UniProt P15498: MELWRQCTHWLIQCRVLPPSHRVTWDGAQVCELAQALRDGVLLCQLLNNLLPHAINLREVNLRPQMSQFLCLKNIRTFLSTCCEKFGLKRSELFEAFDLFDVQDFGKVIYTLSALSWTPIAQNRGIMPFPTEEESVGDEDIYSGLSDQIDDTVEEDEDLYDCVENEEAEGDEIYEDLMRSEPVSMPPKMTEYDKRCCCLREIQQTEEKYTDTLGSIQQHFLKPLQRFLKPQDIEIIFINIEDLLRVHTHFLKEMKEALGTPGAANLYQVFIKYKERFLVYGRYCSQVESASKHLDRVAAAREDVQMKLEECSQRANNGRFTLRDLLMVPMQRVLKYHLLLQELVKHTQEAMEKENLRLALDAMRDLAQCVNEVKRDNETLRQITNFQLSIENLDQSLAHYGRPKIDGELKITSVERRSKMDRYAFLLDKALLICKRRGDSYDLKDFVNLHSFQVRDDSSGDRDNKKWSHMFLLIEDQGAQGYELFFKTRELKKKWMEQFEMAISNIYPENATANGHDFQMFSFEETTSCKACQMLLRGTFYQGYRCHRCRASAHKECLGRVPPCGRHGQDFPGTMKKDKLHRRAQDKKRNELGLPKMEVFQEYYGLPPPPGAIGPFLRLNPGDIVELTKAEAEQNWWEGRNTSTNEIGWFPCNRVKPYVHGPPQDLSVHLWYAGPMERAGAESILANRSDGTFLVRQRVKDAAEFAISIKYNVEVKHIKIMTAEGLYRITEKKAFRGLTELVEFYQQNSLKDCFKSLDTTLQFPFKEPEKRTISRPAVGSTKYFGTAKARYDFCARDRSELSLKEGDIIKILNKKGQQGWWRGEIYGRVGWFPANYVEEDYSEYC

Compound: CC1Cc2ccccc2N1C(=O)C1CCCN(C1)C(=O)CCl (mixture of isomers) [TRIM25 ligand 11 (diastereomer mixture)]
Experiment: probe-labelled cysteine peptide fold change vs DMSO (competition) (log2 fold change); higher = less target engagement (more negative = stronger competition)
Conditions: THP-1, incubation time: 4 h
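Also: competitive chemoproteomic profiling in live THP-1 cells with an iodoacetamide desthiobiotin (IA-DTB) probe, comparing probe-labelled peptide intensities in compound-treated cells against DMSO-treated controls.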

| Target | probe-labelled cysteine peptide fold change (10 µM) | probe-labelled cysteine peptide fold change (50 µM) |
| --- | --- | --- |
| VPS35_Q96QK1_673_AVSTCAHLFWSGR (UniProt Q96QK1) | -0.176 | -0.348 |
| UTP20_O75691_616_LALCGCK (UniProt O75691) | 0.0199 | -0.0424 |
| UVRAG_Q9P2Y5_71_NGHQLLDTYFTLHLCSTEK (UniProt Q9P2Y5) | 0.00874 | -0.106 |
| VARS_P26640_479_LVNWSCTLNSAISDIEVDKK (UniProt P26640) | 0.0307 | 0.108 |
| USP9Y_O00507_1910_FDDGDVTECK (UniProt O00507) | 0.18 | 0.0303 |
| UXS1_Q8NBZ7_230_ACYDEGK (UniProt Q8NBZ7) | -0.0489 | -0.0987 |
| VAPA_Q9P0L0_128_CVFEMPNENDKLNDMEPSK (UniProt Q9P0L0) | -0.158 | -0.495 |
| VPS28_Q9UK41_70_DCVSPSEYTAACSR (UniProt Q9UK41) | -0.0796 | 0.531 |
| WAPL_Q7Z5K2_719_TLDDSQHHQNLSLCTAALMYILSR (UniProt Q7Z5K2) | -0.0493 | -0.134 |
| VAMP7_P51809_64_IVYLCITDDDFER (UniProt P51809) | 0.375 | 0.342 |
| USP9X_Q93008_842_ASYDTLCVLDGDKDSVNCAR (UniProt Q93008) | -0.133 | -0.0909 |
| WAPL_Q7Z5K2_1170_FLSFMNLTCAVGTTGQK (UniProt Q7Z5K2) | -0.064 | 0.00311 |
| VAT1L_Q9HCJ6_78_ACGLNFIDLMVR (UniProt Q9HCJ6) | 0.0668 | -0.122 |
| VRK1_Q99986_220_CHDGTIEFTSIDAHNGVAPSRR (UniProt Q99986) | -0.155 | -0.0245 |
| VAPB_O95292_173_VMEECK (UniProt O95292) | -0.105 | -0.0297 |
| VARS_P26640_1185_CSIHLQLQGLVDPARELGK (UniProt P26640) | -0.114 | -0.105 |
| VAV3_Q9UKW4_44_DGVLLCQLLNNLR (UniProt Q9UKW4) | 0.245 | 0.381 |
| VPS18_Q9P253_947_ADLDELVAAECVYCGELMIR (UniProt Q9P253) | 0.712 | 0.481 |
| VKORC1L1_Q8N0U8_50_ALCDLGPWVK (UniProt Q8N0U8) | 0.0699 | -0.0064 |
| UTP6_Q9NYH9_524_EQESCNMANIR (UniProt Q9NYH9) | -0.0727 | -0.0847 |
| VPS39_Q96JC1_235_VAVGQDDLTVVLNEEGICTQK (UniProt Q96JC1) | -0.00872 | -0.0751 |
| VCP_P55072_77_EAVCIVLSDDTCSDEK (UniProt P55072) | -0.0814 | 0.0201 |

| Target | probe-labelled cysteine peptide fold change (10 µM) | probe-labelled cysteine peptide fold change (50 µM) |
| --- | --- | --- |
| UTRN_P46939_2098_HQLDEIICWLTK (UniProt P46939) | -0.0117 | -0.0749 |
| VPS35_Q96QK1_137_DLVEMCR (UniProt Q96QK1) | 0.0601 | -0.0105 |
| VTA1_Q9NP79_155_ATYIHNCLK (UniProt Q9NP79) | -0.12 | 0.0362 |
| VIRMA_Q69YN4_1170_SFSGTTCQPIQHMLR (UniProt Q69YN4) | 0.00804 | 0.274 |
| VPS18_Q9P253_421_ERPDCLDTVLAR (UniProt Q9P253) | 0.0114 | -0.003 |
| VCPIP1_Q96JH7_160_DMNQGELFDCALLGDR (UniProt Q96JH7) | 0.168 | -0.264 |
| VLDLR_P98155_40_CEPSQFQCTNGR (UniProt P98155) | -0.0128 | 0.0756 |
| VPS13B_Q7Z7G8_1218_CSNPQVQLFYELTDIMNK (UniProt Q7Z7G8) | 0.133 | -0.00811 |
| VAV1_P15498_31_VTWDGAQVCELAQALR (UniProt P15498) | 0.0648 | 0.411 |
| USP8_P40818_809_NCYQDDINR (UniProt P40818) | 0.0364 | -0.0104 |
| VPS13C_Q709C8_2276+2289_GIEHSLIEENCGVVVESIQVTLECGLGHR (UniProt Q709C8) | 0.105 | -0.00969 |
| VCPIP1_Q96JH7_127_VMGLSNYHCK (UniProt Q96JH7) | -0.0347 | -0.224 |
| WAC_Q9BTA9_553_STCSLTPALAAHFSENLIK (UniProt Q9BTA9) | 0.128 | -0.221 |
| USP8_P40818_988_FYCSHCR (UniProt P40818) | 0.0334 | 0.112 |
| VPS72_Q15906_292_EVCPVTHRPALYRDPVTDIPYATAR (UniProt Q15906) | 0.148 | -0.164 |
| VPS13C_Q709C8_1613_ITAELNAFNVFVCDQK (UniProt Q709C8) | -0.0795 | 0.0743 |
| USP9X_Q93008_1451_KFHIGCEK (UniProt Q93008) | 0.0359 | -0.0114 |
| UTRN_P46939_2986_EVAGPTEMCDQR (UniProt P46939) | 0.0703 | -0.114 |
| VCP_P55072_174_VVETDPSPYCIVAPDTVIHCEGEPIKR (UniProt P55072) | 0.0996 | -0.0884 |
| VCPIP1_Q96JH7_472_CLLCGALSELHVPPEWLAPGGK (UniProt Q96JH7) | 0.159 | 0.00847 |
| VPS11_Q9H270_231_VELDTHGCGLR (UniProt Q9H270) | 0.0608 | 0.122 |
| VASP_P50552_64_KMQPDQQVVINCAIVR (UniProt P50552) | -0.174 | -0.0977 |

| Target | probe-labelled cysteine peptide fold change (10 µM) | probe-labelled cysteine peptide fold change (50 µM) |
| --- | --- | --- |
| VRK2_Q86Y07_239_SDVEILGYCMLR (UniProt Q86Y07) | 0.0676 | 0.0355 |
| VCP_P55072_209_EDEEESLNEVGYDDIGGCR (UniProt P55072) | -0.173 | 0.219 |
| VPS13C_Q709C8_1372_ILTENLCEGTEDLDK (UniProt Q709C8) | 0.089 | 0.414 |
| VPS33A_Q96AX1_163_ECYLEGDQTSLYHAAK (UniProt Q96AX1) | 0.202 | 0.0498 |
| VPS13A_Q96RL7_1608_ACPFLPVK (UniProt Q96RL7) | -0.0957 | -0.164 |
| VPS13C_Q709C8_1998_TCTLDDLR (UniProt Q709C8) | 0.173 | 0.14 |
| VPS41_P49754_102_INQISLDESGEHMGVCSEDGK (UniProt P49754) | 0.173 | -0.00626 |
| USP9Y_O00507_1729_ICQGCPHRYECEESFTTLNVDIR (UniProt O00507) | -0.0867 | -0.207 |
| USP8_P40818_50_TAEECR (UniProt P40818) | 0.265 | 0.233 |
| VAV1_P15498_794_YDFCAR (UniProt P15498) | -0.0415 | 0.232 |
| WAPL_Q7Z5K2_675_CLSVISLATK (UniProt Q7Z5K2) | 0.000138 | 0.125 |
| VCL_P18206_325_EILGTCK (UniProt P18206) | 0.0764 | 0.0873 |
| VPS54_Q9P1Q0_653_LMETFILDTEQICGR (UniProt Q9P1Q0) | 0.0792 | 0.139 |
| VPS35_Q96QK1_253_QIVLTGILEQVVNCR (UniProt Q96QK1) | -0.0242 | -0.131 |
| VPS11_Q9H270_568_GLCTDYRPSLEGR (UniProt Q9H270) | 0.0588 | -0.176 |
| UTP4_Q969X6_21_CVAYNNQSNR (UniProt Q969X6) | 0.045 | 0.136 |
| WAPL_Q7Z5K2_906_AEDSICLADSKPLPHQNVTNHVGK (UniProt Q7Z5K2) | 0.0419 | -0.166 |
| VPS35_Q96QK1_156_NYLLQCTR (UniProt Q96QK1) | 0.106 | 0.0964 |
| VPS29_Q9UBQ0_15_CNSLPAK (UniProt Q9UBQ0) | -0.0729 | 0.0832 |
| USP9Y_O00507_1238_YMPDICVIR (UniProt O00507) | -0.0169 | -0.186 |
| UTP20_O75691_2571_VLYLLELYCEDK (UniProt O75691) | 0.207 | 0.37 |
| VPS45_Q9NRW7_359_NLLEVSEVEQELACQNDHSSALQNIKR (UniProt Q9NRW7) | -0.0897 | -0.203 |

| Target | probe-labelled cysteine peptide fold change (10 µM) | probe-labelled cysteine peptide fold change (50 µM) |
| --- | --- | --- |
| USP9X_Q93008_2293_KIIEDCSNSEETVK (UniProt Q93008) | 0.127 | 0.0296 |
| VRK3_Q8IV63_128_TSCSPQK (UniProt Q8IV63) | 0.0233 | -0.142 |
| VBP1_P61758_113_FLLADNLYCK (UniProt P61758) | -0.0132 | -0.0253 |
| VIM_P08670_328_RQVQSLTCEVDALK (UniProt P08670) | -0.0573 | -0.0122 |
| UVRAG_Q9P2Y5_186_TILLQVDQNCVR (UniProt Q9P2Y5) | -0.0211 | 0.144 |
| VARS_P26640_927_FGLCAYMSQGR (UniProt P26640) | -0.119 | -0.141 |
| VCL_P18206_422_IAELCDDPKERDDILR (UniProt P18206) | -0.172 | -0.112 |
| UTRN_P46939_3097_HFNYDVCQSCFFSGR (UniProt P46939) | 0.0812 | 0.164 |
| VSIR_Q9H7M9_83_GEVQTCSER (UniProt Q9H7M9) | -0.0894 | 0.0102 |
| USP9Y_O00507_674_DGQLWLCAPQAK (UniProt O00507) | -0.0313 | -0.0409 |
| VPS39_Q96JC1_358_NLYAFNLFCQK (UniProt Q96JC1) | 0.106 | 0.224 |
| VPS36_Q86VN1_271_GGIMSLTEVYCLVNR (UniProt Q86VN1) | 5.03e-06 | 0.0661 |
| VPS13D_Q5THJ4_3722_LTCGLHGLVVQAK (UniProt Q5THJ4) | -0.0283 | -0.0749 |
| VPS16_Q9H269_817_NEAELSLVLSHCTGATDGATADK (UniProt Q9H269) | 0.166 | 0.0291 |
| USP8_P40818_985+988_FYCSHCR (UniProt P40818) | 0.0844 | 0.06 |
| VIPAS39_Q9H9C1_446_CHDVVIDTYR (UniProt Q9H9C1) | 0.0154 | -0.011 |
| WAPL_Q7Z5K2_1190_VIEYLEHC (UniProt Q7Z5K2) | -0.0222 | 0.0926 |
| VPS28_Q9UK41_103_LDCPLAMER (UniProt Q9UK41) | 0.165 | 0.0842 |
| VARS_P26640_194_WFVTCVR (UniProt P26640) | -0.214 | 0.167 |
| VCPIP1_Q96JH7_219_SQECLIPVHVDGDGHCLVHAVSR (UniProt Q96JH7) | -0.566 | -1.68 |
| VPS26B_Q4G0F5_334_TPSQLSDNNCR (UniProt Q4G0F5) | 0.0807 | -0.165 |
